## Results from one PubChem assay

Data taken from PubChem BioAssay AID504749, deposited by NCATS (2011).

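Malaria parasite (P. falciparum) lines kept in red blood cells; parasite DNA is measured by SYBR Green fluorescence after lysis, 72 h after compound addition.
Each compound was titrated across a series from about 0.000037 to 29 µM.
The number is the fitted AC50, the concentration giving a half-maximal change in signal; a lower value means higher potency, whether the curve shows a decrease or an increase.
Calls follow the curve class and fit quality: every row here is inconclusive, covering signal-raising curves and weak, poorly fitted, partial or highest-dose-only inhibition curves.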

Values are in µM.
All entries here are filed as inconclusive.
Only part of the assay is shown, chiefly results filed as inconclusive.
A potency from a partial, single-point or poor curve is only a rough figure.
Some entries filed as inconclusive have a full curve.

Result for CCN(CC)CCOc1ccccc1C(=O)CCc1ccccc1 [CP211] was fitted potency 7.569 µM (inhibitor, partial curve). CCN(CC)CCOc1ccccc1C(=O)CCc1ccccc1 [CP194] read fitted potency 7.569 µM (inhibitor, partial curve). With CCN(CC)CCOc1ccccc1C(=O)CCc1ccccc1 [P93_24] the assay gave fitted potency 3.981 µM (inhibitor, partial curve). Result for CCN(CC)CCOc1ccccc1C(=O)CCc1ccccc1 [PC26] was fitted potency 4.776 µM (inhibitor, partial curve, poor fit). Result for CCN(CC)CCOc1ccccc1C(=O)CCc1ccccc1 [CP335] was fitted potency 6.746 µM (inhibitor, partial curve).

CCN(CC)CCOc1ccccc1C(=O)CCc1ccccc1 [CP286] gave fitted potency 4.467 µM (inhibitor, partial curve). For CCN(CC)CCOc1ccccc1C(=O)CCc1ccccc1 [CP203] the result was fitted potency 12 µM (inhibitor, partial curve). For CCN(CC)CCOc1ccccc1C(=O)CCc1ccccc1 [CP247] the result was fitted potency 5.012 µM (inhibitor, partial curve). With CCN(CC)CCOc1ccccc1C(=O)CCc1ccccc1 [CP329] the assay gave fitted potency 12 µM (inhibitor, single point). For CCN(CC)CCOc1ccccc1C(=O)CCc1ccccc1 [CP238] the result was fitted potency 11.22 µM (inhibitor, single point).

For CCN(CC)CCOc1ccccc1C(=O)CCc1ccccc1 [PC15] the result was fitted potency 3.981 µM (inhibitor, partial curve). Result for CCN(CC)CCOc1ccccc1C(=O)CCc1ccccc1 [ATS95] was fitted potency 10 µM (inhibitor, partial curve). Result for CCN(CC)CCOc1ccccc1C(=O)CCc1ccccc1 [CP217] was fitted potency 7.08 µM (inhibitor, partial curve). For CCN(CC)CCOc1ccccc1C(=O)CCc1ccccc1 [DIV30] the result was fitted potency 5.358 µM (inhibitor, partial curve). CCN(CC)CCOc1ccccc1C(=O)CCc1ccccc1 [ATS189] gave fitted potency 5.012 µM (inhibitor, partial curve).

CCN(CC)CCOc1ccccc1C(=O)CCc1ccccc1 [CP201] gave fitted potency 16.94 µM (inhibitor, single point). For CCN(CC)CCOc1ccccc1C(=O)CCc1ccccc1 [CP237] the result was fitted potency 1.413 µM (inhibitor, full curve). For CCN(CC)CCOc1ccccc1C(=O)CCc1ccccc1 [CP268] the result was fitted potency 8.492 µM (inhibitor, partial curve). CCN(CC)CCOc1ccccc1C(=O)CCc1ccccc1 [AS120] read fitted potency 7.943 µM (inhibitor, partial curve). CCN(CC)CCOc1ccccc1C(=O)CCc1ccccc1 [CP215] gave fitted potency 15.1 µM (inhibitor, single point).

Result for CCN(CC)CCOc1ccccc1C(=O)CCc1ccccc1 [TAB165] was fitted potency 4.467 µM (inhibitor, partial curve). CCN(CC)CCOc1ccccc1C(=O)CCc1ccccc1 [ICS] read fitted potency 6.31 µM (inhibitor, partial curve). CCN(CC)CCOc1ccccc1C(=O)CCc1ccccc1 [P94_40] read fitted potency 12.59 µM (inhibitor, single point). For CCN(CC)CCOc1ccccc1C(=O)CCc1ccccc1 [DFO2036] the result was fitted potency 6.31 µM (inhibitor, partial curve, poor fit). With CCN(CC)CCOc1ccccc1C(=O)CCc1ccccc1 [CP291] the assay gave fitted potency 5.358 µM (inhibitor, partial curve).

For CCN(CC)CCOc1ccccc1C(=O)CCc1ccccc1 [CP185] the result was fitted potency 8.912 µM (inhibitor, partial curve, poor fit). CCN(CC)CCOc1ccccc1C(=O)CCc1ccccc1 [CP265] gave fitted potency 10 µM (inhibitor, partial curve, poor fit). CCN(CC)CCOc1ccccc1C(=O)CCc1ccccc1 [AA1029] read fitted potency 10 µM (inhibitor, partial curve). CCN(CC)CCOc1ccccc1C(=O)CCc1ccccc1 [7G8] gave fitted potency 11.22 µM (inhibitor, partial curve). CCN(CC)CCOc1ccccc1C(=O)CCc1ccccc1 [CP297] gave fitted potency 4.776 µM (inhibitor, partial curve).

CCN(CC)CCOc1ccccc1C(=O)CCc1ccccc1 [SC27B] read fitted potency 12.59 µM (inhibitor, partial curve). CCN(CC)CCOc1ccccc1C(=O)CCc1ccccc1 [GB4] gave fitted potency 1.901 µM (inhibitor, full curve). With CCN(CC)CCOc1ccccc1C(=O)CCc1ccccc1 [TAB109] the assay gave fitted potency 3.981 µM (inhibitor, partial curve). CN1C[C@H](CNC(=O)OCc2ccccc2)C[C@@H]2c3cccc4c3c(cn4C)C[C@H]21 [CP291] read fitted potency 15.1 µM (inhibitor, partial curve). Result for CN1C[C@H](CNC(=O)OCc2ccccc2)C[C@@H]2c3cccc4c3c(cn4C)C[C@H]21 [CP297] was fitted potency 13.46 µM (inhibitor, partial curve).